Screening data, single-dose tests

The chains behind the UniProt entries cited, without tags or fusion partners. Residues count along the entry.
UniProt P9WPC5, whole entry: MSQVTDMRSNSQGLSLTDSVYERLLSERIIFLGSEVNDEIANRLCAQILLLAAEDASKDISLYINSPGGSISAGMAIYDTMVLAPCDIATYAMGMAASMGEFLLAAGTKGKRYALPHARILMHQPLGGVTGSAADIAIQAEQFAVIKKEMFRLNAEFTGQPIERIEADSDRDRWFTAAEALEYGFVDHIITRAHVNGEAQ
UniProt P9WPC3, whole entry partner: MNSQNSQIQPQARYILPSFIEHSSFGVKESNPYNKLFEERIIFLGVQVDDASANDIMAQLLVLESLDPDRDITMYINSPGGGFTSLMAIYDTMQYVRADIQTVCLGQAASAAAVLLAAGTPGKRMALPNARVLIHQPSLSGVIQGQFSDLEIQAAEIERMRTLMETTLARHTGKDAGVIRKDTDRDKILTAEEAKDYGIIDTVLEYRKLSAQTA
UniProt Q8IDJ8, 1-583: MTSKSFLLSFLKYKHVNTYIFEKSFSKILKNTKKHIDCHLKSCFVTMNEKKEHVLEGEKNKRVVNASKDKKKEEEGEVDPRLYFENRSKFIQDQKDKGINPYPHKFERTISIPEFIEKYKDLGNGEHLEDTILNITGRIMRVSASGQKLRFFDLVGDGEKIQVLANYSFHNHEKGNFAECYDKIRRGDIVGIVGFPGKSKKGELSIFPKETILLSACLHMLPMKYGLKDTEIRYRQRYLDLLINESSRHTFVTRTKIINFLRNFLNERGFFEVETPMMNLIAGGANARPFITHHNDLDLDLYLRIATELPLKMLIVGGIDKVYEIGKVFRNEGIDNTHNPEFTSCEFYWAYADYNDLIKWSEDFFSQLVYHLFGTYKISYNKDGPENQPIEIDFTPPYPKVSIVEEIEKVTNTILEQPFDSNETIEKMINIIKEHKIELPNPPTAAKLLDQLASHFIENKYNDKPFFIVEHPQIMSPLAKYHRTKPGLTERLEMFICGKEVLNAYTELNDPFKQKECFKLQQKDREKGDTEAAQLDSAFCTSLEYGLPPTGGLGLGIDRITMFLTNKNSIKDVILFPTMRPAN
UniProt P9WFT3, whole entry: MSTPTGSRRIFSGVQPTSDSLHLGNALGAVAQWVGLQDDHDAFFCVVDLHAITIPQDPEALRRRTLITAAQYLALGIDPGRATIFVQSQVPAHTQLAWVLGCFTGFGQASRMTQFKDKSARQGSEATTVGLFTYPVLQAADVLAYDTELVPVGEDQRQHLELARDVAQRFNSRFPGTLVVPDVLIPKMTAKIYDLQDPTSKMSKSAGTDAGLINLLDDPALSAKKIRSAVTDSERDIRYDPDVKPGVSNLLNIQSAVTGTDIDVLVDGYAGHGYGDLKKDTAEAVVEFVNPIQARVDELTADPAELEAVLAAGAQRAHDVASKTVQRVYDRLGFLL
UniProt A4I591, 1-473: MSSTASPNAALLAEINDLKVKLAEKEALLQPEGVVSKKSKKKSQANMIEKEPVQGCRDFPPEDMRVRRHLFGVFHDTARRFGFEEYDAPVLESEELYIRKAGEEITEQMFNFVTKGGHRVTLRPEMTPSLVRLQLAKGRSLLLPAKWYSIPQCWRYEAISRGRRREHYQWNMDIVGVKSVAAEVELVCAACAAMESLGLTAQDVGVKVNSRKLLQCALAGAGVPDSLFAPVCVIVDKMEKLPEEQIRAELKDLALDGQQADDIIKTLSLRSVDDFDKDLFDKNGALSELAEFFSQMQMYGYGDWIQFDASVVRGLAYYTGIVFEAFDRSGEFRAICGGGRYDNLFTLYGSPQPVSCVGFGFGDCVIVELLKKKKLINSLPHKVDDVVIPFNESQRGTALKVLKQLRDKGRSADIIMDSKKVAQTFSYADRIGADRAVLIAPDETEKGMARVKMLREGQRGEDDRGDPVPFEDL
UniProt Q4DA54, 1-478: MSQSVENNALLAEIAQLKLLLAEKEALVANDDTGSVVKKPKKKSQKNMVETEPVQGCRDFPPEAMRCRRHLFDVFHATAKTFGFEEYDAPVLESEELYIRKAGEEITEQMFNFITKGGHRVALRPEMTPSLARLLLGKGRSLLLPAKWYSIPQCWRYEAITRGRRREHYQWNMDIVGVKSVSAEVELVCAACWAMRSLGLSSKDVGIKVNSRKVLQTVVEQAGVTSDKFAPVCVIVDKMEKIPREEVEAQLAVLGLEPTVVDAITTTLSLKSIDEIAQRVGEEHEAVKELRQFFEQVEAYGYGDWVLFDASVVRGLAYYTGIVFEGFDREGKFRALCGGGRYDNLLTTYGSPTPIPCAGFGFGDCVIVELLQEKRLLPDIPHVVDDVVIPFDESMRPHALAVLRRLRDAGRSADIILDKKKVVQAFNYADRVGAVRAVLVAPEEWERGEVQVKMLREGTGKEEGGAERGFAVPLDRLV

Measurements from “University of Dundee, Small-Polar-MMV Screening Library” (2021), ChEMBL document CHEMBL3988442.

A: 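Protease assay of ClpP1P2, read by the AMC dye that it sets free. Target: ClpP1P2, Mycobacterium tuberculosis (UniProt P9WPC5 and UniProt P9WPC3). Tested at 50 µM. Direction is inferred from only a few compounds that gave an IC50; most scored high, so higher reads as stronger inhibition. Most other retested compounds had strongly negative values. About 69,000 compounds were tested under these conditions; 0.015% (about 10) showed 50% or more at least once.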
B: 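Enzyme assay of the cytosolic lysyl-tRNA synthetase in 384-well plates, read by luminescence. Target: Lysine-tRNA ligase, Plasmodium falciparum 3D7 (UniProt Q8IDJ8). Concentration: 30 µM. Direction is inferred from only a few compounds that gave an IC50; most scored high, so higher reads as stronger inhibition. Size under these conditions: about 69,000 compounds, about 49 of them at 50% or above in at least one test.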
C: 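Enzyme assay of tryptophanyl-tRNA synthetase; the read-out is not stated. Target: Tryptophan-tRNA ligase, Mycobacterium tuberculosis (UniProt P9WFT3). Tested at 10 µM. Direction is not recorded; retested compounds ran higher, which suggests that high means inhibition. About 65,000 compounds were tested under these conditions; 0.098% (about 64) showed 50% or more at least once.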
D: 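Enzyme assay of histidyl-tRNA synthetase; the read-out is not stated. Target: Histidine-tRNA ligase, Leishmania infantum (UniProt A4I591). Tested at 30 µM. Direction is inferred from retests: higher values go with stronger inhibition. The assay is labelled LdHisRS but filed under L. infantum. Size under these conditions: about 69,000 compounds, about 410 of them at 50% or above in at least one test.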
E: 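Histidine-tRNA ligase, Trypanosoma cruzi CL Brener (UniProt Q4DA54). Enzyme assay of histidyl-tRNA synthetase; the read-out is not stated. Tested at 30 µM. The record gives no direction; compounds that gave an IC50 in retests scored well above the rest, so higher reads as stronger inhibition. About 69,000 compounds were tested under these conditions; 0.045% (about 31) showed 50% or more at least once.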
F: 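Cell assay of Leishmania donovani living inside macrophages; the read-out is not stated. Concentration: 30 µM. Higher reads as stronger inhibition (inferred: compounds with an IC50 in retests scored well above the rest). Of about 69,000 compounds tested this way, about 1,000 (1.5%) reached 50% or more in at least one test.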

Values are the deposited “Percent Effect”, in %. The record does not define 0% and 100%; most values in the screen are far below 50% and negative numbers occur (in some assays of this library far below -100). Compounds were drawn at random from those tested, without regard to their results. Two or more numbers in one place are separate tests of the same structure; such repeats can differ widely.

With O=C1CCC(=O)N1CCOc1nc(-c2ccccc2Cl)no1 the screen gave A: -8.119%; B: 1.663%; C: 4.499%; D: 17.28%; E: 3.067%; F: 32.6%. For COc1cc(N2CCCC3(CCN(c4cccnc4)C3=O)C2)ncn1.O=C(O)C(F)(F)F (stereo not shown) the result was F: 42.97%. With COC(=O)c1sccc1S(=O)(=O)NCCC(O)c1ccoc1 (stereo not shown) the screen gave A: 0.3551%; B: 1.075%; C: -3.875%; D: 0%; E: 2.062%; F: 3.962% and -40.98%. Result for Nc1cc2c(nn1)CCN(C(=O)c1csc(-c3ccco3)n1)C2 was A: 9.206%; B: 0.6797%; C: -9.044%; D: 15.79%; E: 7.263%; F: 12.55%. With CCn1c(CN(C)C)nnc1C1CCN(Cc2cccc(F)c2F)CC1 the screen gave A: -12.77%; B: 3.125%; C: 0.7971%; D: 13.6%; E: -3.518%; F: 21.61%. With CC(C(=O)N1CCc2sccc2C1)N1CCC(S(N)(=O)=O)CC1 (stereo not shown) the screen gave A: -1.165%; B: 0.4641%; C: 0%; D: 8.571%; E: -5.102%; F: 5.138%.

CCOCC1CCN(C(=O)Nc2ccc3c(c2)CCCN3C)C1 (stereo not shown) gave A: -4.061%; B: 5.988%; C: -1.858%; D: 29.17%; E: 7.895%; F: 6.082%. COC(=O)c1cccn1C1CCN(CCN2C(=O)CCC2=O)CC1 gave A: -10.42%; B: -0.8441%; C: -4.827%; D: 5.128%; E: 3.134%; F: 22.2%. [H][C@@]12CS(=O)(=O)C[C@]1([H])N(Cc1cc(OC)cc(OC)c1)CCN2CC1CC1 read F: -0.2709%. With Cc1ccc(C)c2c(O)cc(CNCCNC(=O)C(C)C)nc12 the screen gave A: 3.071%; B: 2.742%; C: 1.419%; D: 8.73%; E: 7.059%; F: -6.552%. COCCC(=O)N1CCc2c(CNc3ncccn3)cncc2C1.Cl read F: -3.201%. COc1ccc(C2CCN(S(=O)(=O)CCCC#N)CC2)cc1 gave A: -2.205%; B: 6.176%; C: 1.089%; D: 15.56%; E: 6.667%; F: 17.36%.

With Cn1nc2c(cc1=O)CN(CCCOc1ccc(C#N)cc1)CC2 the screen gave A: 0.8883%; B: 11.58%; C: 5.061%; D: 12.7%; E: 8.081%; F: -0.5399%. For O=C(CCc1cc2n(n1)CCN(Cc1ncc[nH]1)C2)N1CCCC1 the result was A: 5.061%; B: 3.003%; C: 4.762%; D: 13.33%; E: -0.8264%; F: -4.955%.

The last 2 entries again:

compound	A	B	C	D	E	F
Cn1nc2c(cc1=O)CN(CCCOc1ccc(C#N)cc1)CC2	0.8883	11.58	5.061	12.7	8.081	-0.5399
O=C(CCc1cc2n(n1)CCN(Cc1ncc[nH]1)C2)N1CCCC1	5.061	3.003	4.762	13.33	-0.8264	-4.955